Source: the supplement of paper PMC11438910
This is one part of the list. Only a few entries rise above the background.

Columns and labels:
Test in all cases: fluorescence intensity of antibody binding to polysaccharide-coupled beads; higher = stronger binding
[1] = molecular target: pneumococcal polysaccharide Pn23F
[2] = molecular target: pneumococcal polysaccharide Pn24A
[3] = molecular target: pneumococcal polysaccharide Pn24B
[4] = molecular target: pneumococcal polysaccharide Pn24F
[5] = molecular target: pneumococcal polysaccharide Pn25A
[6] = molecular target: pneumococcal polysaccharide Pn25F
[7] = molecular target: pneumococcal polysaccharide Pn27
[8] = molecular target: pneumococcal polysaccharide Pn28A
[9] = molecular target: pneumococcal polysaccharide Pn28F
[10] = molecular target: pneumococcal polysaccharide Pn29
[11] = molecular target: pneumococcal polysaccharide Pn3
[12] = molecular target: pneumococcal polysaccharide Pn31
[13] = molecular target: pneumococcal polysaccharide Pn32A
[14] = molecular target: pneumococcal polysaccharide Pn32F
[15] = molecular target: pneumococcal polysaccharide Pn33A
[16] = molecular target: pneumococcal polysaccharide Pn33B
[17] = molecular target: pneumococcal polysaccharide Pn33C
[18] = molecular target: pneumococcal polysaccharide Pn33D
[19] = molecular target: pneumococcal polysaccharide Pn33F
[20] = molecular target: pneumococcal polysaccharide Pn34
[21] = molecular target: pneumococcal polysaccharide Pn35A
[22] = molecular target: pneumococcal polysaccharide Pn35B
[23] = molecular target: pneumococcal polysaccharide Pn35C
[24] = antibody concentration 2.8593 ng/mL
[25] = antibody concentration 15.2894 ng/mL
[26] = antibody concentration 81.7561 ng/mL
[27] = antibody concentration 437.17 ng/mL
[28] = antibody concentration 2337.65 ng/mL
[29] = antibody concentration 12500 ng/mL
[30] = antibody concentration 0.1 ng/mL
[31] = antibody concentration 0.534724 ng/mL

B1: 4-99.1 (protein)
chain 1: QVQLQESGPGLVKPSETLSLTCAVSGDSISSGYFWGWIRQPPGKGLEYIGYISGESGNTYDNPSLKSRVTISKDTSKNQFSLNLRSVTAADTAVYYCARRTVYIGFDYWGQGVLVTVSS
chain 2: QAAPTQPPSVSGSPGQSVTISCTGTSSDIGYYNAVSWYQQHPGKAPKLMIYEVSKRPSGVSDRFSGSKSGTTASLTISGLQAEDEADYYCSSYAGTNTYIFGAGTRLTVL
Which results are given for B1?
fluorescence intensity [1, 24]: 17 MFI; fluorescence intensity [1, 25]: 18.5 MFI; fluorescence intensity [1, 26]: 19 MFI; fluorescence intensity [1, 27]: 20.5 MFI; fluorescence intensity [1, 28]: 20.8 MFI; fluorescence intensity [1, 29]: 32 MFI; fluorescence intensity [2, 30]: 15.5 MFI; fluorescence intensity [2, 31]: 15.5 MFI; fluorescence intensity [2, 24]: 15.5 MFI; fluorescence intensity [2, 25]: 15 MFI; fluorescence intensity [2, 26]: 15.5 MFI; fluorescence intensity [2, 27]: 16.8 MFI; fluorescence intensity [2, 28]: 18 MFI; fluorescence intensity [2, 29]: 30.5 MFI; fluorescence intensity [3, 30]: 17.2 MFI; fluorescence intensity [3, 31]: 19.5 MFI; fluorescence intensity [3, 24]: 18 MFI; fluorescence intensity [3, 25]: 17.5 MFI; fluorescence intensity [3, 26]: 19 MFI; fluorescence intensity [3, 27]: 20 MFI; fluorescence intensity [3, 28]: 25 MFI; fluorescence intensity [3, 29]: 60 MFI; fluorescence intensity [4, 30]: 17.8 MFI; fluorescence intensity [4, 31]: 19 MFI; fluorescence intensity [4, 24]: 20.8 MFI; fluorescence intensity [4, 25]: 18.5 MFI; fluorescence intensity [4, 26]: 18.2 MFI; fluorescence intensity [4, 27]: 22 MFI; fluorescence intensity [4, 28]: 26 MFI; fluorescence intensity [4, 29]: 45 MFI; fluorescence intensity [5, 30]: 23.8 MFI; fluorescence intensity [5, 31]: 26.5 MFI; fluorescence intensity [5, 24]: 24.5 MFI; fluorescence intensity [5, 25]: 23.5 MFI; fluorescence intensity [5, 26]: 25.5 MFI; fluorescence intensity [5, 27]: 27.5 MFI; fluorescence intensity [5, 28]: 29 MFI; fluorescence intensity [5, 29]: 34.5 MFI; fluorescence intensity [6, 30]: 32 MFI; fluorescence intensity [6, 31]: 30.5 MFI; fluorescence intensity [6, 24]: 32 MFI; fluorescence intensity [6, 25]: 30.5 MFI; fluorescence intensity [6, 26]: 31 MFI; fluorescence intensity [6, 27]: 32.5 MFI; fluorescence intensity [6, 28]: 35.5 MFI; fluorescence intensity [6, 29]: 50.8 MFI; fluorescence intensity [7, 30]: 16 MFI; fluorescence intensity [7, 31]: 19 MFI; fluorescence intensity [7, 24]: 17 MFI; fluorescence intensity [7, 25]: 18 MFI; fluorescence intensity [7, 26]: 16 MFI; fluorescence intensity [7, 27]: 20 MFI; fluorescence intensity [7, 28]: 38.8 MFI; fluorescence intensity [7, 29]: 274 MFI; fluorescence intensity [8, 30]: 28 MFI; fluorescence intensity [8, 31]: 27.5 MFI; fluorescence intensity [8, 24]: 27 MFI; fluorescence intensity [8, 25]: 28 MFI; fluorescence intensity [8, 26]: 26.2 MFI; fluorescence intensity [8, 27]: 27.5 MFI; fluorescence intensity [8, 28]: 29 MFI; fluorescence intensity [8, 29]: 39.5 MFI; fluorescence intensity [9, 30]: 29.2 MFI; fluorescence intensity [9, 31]: 29.5 MFI; fluorescence intensity [9, 24]: 29 MFI; fluorescence intensity [9, 25]: 29.8 MFI; fluorescence intensity [9, 26]: 30 MFI; fluorescence intensity [9, 27]: 31 MFI; fluorescence intensity [9, 28]: 35 MFI; fluorescence intensity [9, 29]: 124 MFI; fluorescence intensity [10, 30]: 15 MFI; fluorescence intensity [10, 31]: 16.2 MFI; fluorescence intensity [10, 24]: 17.5 MFI; fluorescence intensity [10, 25]: 17 MFI; fluorescence intensity [10, 26]: 16.5 MFI; fluorescence intensity [10, 27]: 17.5 MFI; fluorescence intensity [10, 28]: 28.8 MFI; fluorescence intensity [10, 29]: 168 MFI; fluorescence intensity [11, 30]: 16.8 MFI; fluorescence intensity [11, 31]: 34 MFI; fluorescence intensity [11, 24]: 118 MFI; fluorescence intensity [11, 25]: 280 MFI; fluorescence intensity [11, 26]: 510 MFI; fluorescence intensity [11, 27]: 2060 MFI; fluorescence intensity [11, 28]: 15500 MFI; fluorescence intensity [11, 29]: 10100 MFI; fluorescence intensity [12, 30]: 15 MFI; fluorescence intensity [12, 31]: 13 MFI; fluorescence intensity [12, 24]: 14.8 MFI; fluorescence intensity [12, 25]: 14.5 MFI; fluorescence intensity [12, 26]: 14.5 MFI; fluorescence intensity [12, 27]: 15 MFI; fluorescence intensity [12, 28]: 23.2 MFI; fluorescence intensity [12, 29]: 215 MFI; fluorescence intensity [13, 30]: 18.5 MFI; fluorescence intensity [13, 31]: 15.8 MFI; fluorescence intensity [13, 24]: 19.2 MFI; fluorescence intensity [13, 25]: 17.5 MFI; fluorescence intensity [13, 26]: 17.5 MFI; fluorescence intensity [13, 27]: 20 MFI; fluorescence intensity [13, 28]: 23.5 MFI; fluorescence intensity [13, 29]: 58 MFI; fluorescence intensity [14, 30]: 28.5 MFI; fluorescence intensity [14, 31]: 27.5 MFI; fluorescence intensity [14, 24]: 28.5 MFI; fluorescence intensity [14, 25]: 28.8 MFI; fluorescence intensity [14, 26]: 28.5 MFI; fluorescence intensity [14, 27]: 32.5 MFI; fluorescence intensity [14, 28]: 45 MFI; fluorescence intensity [14, 29]: 52 MFI; fluorescence intensity [15, 30]: 19 MFI; fluorescence intensity [15, 31]: 18.5 MFI; fluorescence intensity [15, 24]: 17.5 MFI; fluorescence intensity [15, 25]: 17.5 MFI; fluorescence intensity [15, 26]: 19 MFI; fluorescence intensity [15, 27]: 24 MFI; fluorescence intensity [15, 28]: 80.2 MFI; fluorescence intensity [15, 29]: 692 MFI; fluorescence intensity [16, 30]: 18.5 MFI; fluorescence intensity [16, 31]: 17.5 MFI; fluorescence intensity [16, 24]: 18 MFI; fluorescence intensity [16, 25]: 18 MFI; fluorescence intensity [16, 26]: 17.5 MFI; fluorescence intensity [16, 27]: 17.5 MFI; fluorescence intensity [16, 28]: 19.5 MFI; fluorescence intensity [16, 29]: 27 MFI; fluorescence intensity [17, 30]: 19.5 MFI; fluorescence intensity [17, 31]: 20 MFI; fluorescence intensity [17, 24]: 18.2 MFI; fluorescence intensity [17, 25]: 19 MFI; fluorescence intensity [17, 26]: 20 MFI; fluorescence intensity [17, 27]: 21 MFI; fluorescence intensity [17, 28]: 24 MFI; fluorescence intensity [17, 29]: 75.5 MFI; fluorescence intensity [18, 30]: 17 MFI; fluorescence intensity [18, 31]: 16.5 MFI; fluorescence intensity [18, 24]: 17.2 MFI; fluorescence intensity [18, 25]: 16.5 MFI; fluorescence intensity [18, 26]: 16 MFI; fluorescence intensity [18, 27]: 15.5 MFI; fluorescence intensity [18, 28]: 18 MFI; fluorescence intensity [18, 29]: 32.8 MFI; fluorescence intensity [19, 30]: 12.8 MFI; fluorescence intensity [19, 31]: 13.5 MFI; fluorescence intensity [19, 24]: 13.5 MFI; fluorescence intensity [19, 25]: 13.5 MFI; fluorescence intensity [19, 26]: 14 MFI; fluorescence intensity [19, 27]: 16.5 MFI; fluorescence intensity [19, 28]: 42.5 MFI; fluorescence intensity [19, 29]: 425 MFI; fluorescence intensity [20, 30]: 14 MFI; fluorescence intensity [20, 31]: 14 MFI; fluorescence intensity [20, 24]: 14 MFI; fluorescence intensity [20, 25]: 14.8 MFI; fluorescence intensity [20, 26]: 14 MFI; fluorescence intensity [20, 27]: 14.5 MFI; fluorescence intensity [20, 28]: 14.2 MFI; fluorescence intensity [20, 29]: 24.5 MFI; fluorescence intensity [21, 30]: 18 MFI; fluorescence intensity [21, 31]: 17.2 MFI; fluorescence intensity [21, 24]: 17 MFI; fluorescence intensity [21, 25]: 17 MFI; fluorescence intensity [21, 26]: 17 MFI; fluorescence intensity [21, 27]: 18 MFI; fluorescence intensity [21, 28]: 24.5 MFI; fluorescence intensity [21, 29]: 143 MFI; fluorescence intensity [22, 30]: 18.8 MFI; fluorescence intensity [22, 31]: 18.2 MFI; fluorescence intensity [22, 24]: 18.8 MFI; fluorescence intensity [22, 25]: 18 MFI; fluorescence intensity [22, 26]: 18 MFI; fluorescence intensity [22, 27]: 19.5 MFI; fluorescence intensity [22, 28]: 26 MFI; fluorescence intensity [22, 29]: 85.5 MFI; fluorescence intensity [23, 30]: 20 MFI; fluorescence intensity [23, 31]: 20 MFI; fluorescence intensity [23, 24]: 19 MFI; fluorescence intensity [23, 25]: 21 MFI; fluorescence intensity [23, 26]: 20.5 MFI; fluorescence intensity [23, 27]: 21.5 MFI
